# Test results published in PubChem BioAssay AID493014 (National Center for Advancing Translational Sciences (NCATS), 2011).
# In all, about 340,000 compounds went through this assay and about 170 (0.05%) were called active. This list was built around the results that the source calls inconclusive (neither active nor inactive); the mix of calls is not that of the screen. Calls follow the shape of the dose curve; as a rule, active = well fitted inhibition curve with a large enough effect in the signal ratio, with a control signal flat (not every such curve was filed as active); inconclusive = small, poorly fitted or top-dose-only effect, or effect the other way, or a change in a side signal; inactive = flat fitted curve, though single readings scatter; the % refers to the signal ratio. A potency beside an inconclusive call is a rough fit, not a confirmed value.
# Assay: qHTS Assay to Find Inhibitors of Chronic Active B-Cell Receptor Signaling;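 as to activity change, negative = inhibition: plate controls were basal doxycycline-induced cells for no effect and cells given 10 µM MG132 for full effect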
# Conditions: ABC-DLBCL IkBa-CBG/CBR reporter, luminescence ratio (green luciferase fused to IkBa over red control in TMD8 lymphoma cells), 4 h; activity change, negative = inhibition: at 46.1 µM (top of the series)
# Procedure, shortened: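 Compounds up to 46 uM were incubated four hours with TMD8 cells whose green CBG68 luciferase is fused to IkappaBalpha; red CBR luminescence normalised the signal, and concentration-effect curves were fitted to fusion, red and ratio data.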
# Potency is read from the fitted curve at half-maximal effect.
SMILES,"activity change, negative = inhibition",Potency
O=C(Nc1ccc(Cl)cc1C(=O)c1ccccc1)c1ccco1,inactive,–
O=c1c2ccccc2[nH]c(=S)n1-c1ccc2c(c1)OCCO2,inconclusive: -2.39%,–
Cc1ccc2c(c1)C1CN(C)CCC1N2C(=O)Nc1cccc(Cl)c1 (stereo not drawn),inconclusive: 23.4%,–
COc1ccc(CCn2c(O)c(C=NCc3ccc4c(c3)OCO4)c(=O)[nH]c2=O)cc1OC,inconclusive: 7.04%,–
CCOC(=O)c1c(C)n(CCOC)c2ccc(O)cc12,–,"inconclusive: 7.31 µM [rising, partial curve, poor fit]"
COc1ccc(CC2C(=O)N(c3ccccc3)C(=O)N(c3ccccc3)C2=O)c(OC)c1,inconclusive: -83%,–
COC12C(COC(N)=O)C3=C(C(=O)C(C)=C(N)C3=O)N1CC1C2N1C (stereo not drawn),inconclusive: 6.02%,–
CCOC(=O)CC(NC(=O)C(Cc1ccc(N(CCCl)CCCl)cc1)NC(C)=O)C(=O)OCC (stereo not drawn),inconclusive: 2.79%,–
CCN(CC)CCOC(=O)C(O)(c1ccccc1)c1ccccc1,–,"inconclusive: 0.891 µM [falling, full curve, poor fit]"
Cc1cc(-n2c(/C=C/c3cccs3)nc3ccccc3c2=O)ccc1Br,–,"inconclusive: 0.112 µM [falling, full curve, poor fit]"
CCOc1cc2c(cc1OCC)-n1cccc1C(c1ccccc1OC)NC2 (stereo not drawn),inconclusive: -22.7%,–
CC(=O)C1(c2ccccc2)CCNCC1,–,"inconclusive: 0.651 µM [rising, full curve, poor fit]"
N#C/C(=C\C1CC=CCC1)c1nc2ccccc2[nH]1 (stereo not drawn),–,"inconclusive: 35.5 µM [falling, single point]"
CN(C)CCc1nn[nH]n1,inactive,–
CCC(=NCCCn1ccnc1)c1c(O)n(-c2ccccc2)c(=O)[nH]c1=O,inconclusive: 2.49%,–
COCc1cc(OC(=O)N(C)C)nc(-c2ccc(C)c(Cl)c2)n1,inconclusive: 5.86%,–
CN(C)c1nc(-c2ccccc2)[n+](C)s1,inconclusive: 0.696%,–
CCOc1cc(/C=N/Nc2nc3ccccc3[nH]2)cc(Br)c1OCC(=O)N(C)C,inconclusive: -19.7%,–
CN(C)C(=O)Oc1ccc(OCc2cccc[n+]2C)cc1,inconclusive: 6.78%,–
Cn1c(=O)oc2cc(S(=O)(=O)Nc3cccc(C(=O)O)c3)ccc21,inconclusive: -3.05%,–
CN1C(=O)C(=Cc2ccc(SC3CCCCC3)o2)C(=O)N(C)C1=O,–,"inconclusive: 3.16 µM [falling, full curve, poor fit]"
COC(=O)C1=C(c2cccc(OCc3ccccc3)c2)C[C@@H]2CC[C@H]1N2C(=O)NC1CCN(Cc2ccccc2)CC1,inconclusive: -15.3%,–
COc1cc(CNCCc2c[nH]c3ccccc23)cc(OC)c1,–,"inconclusive: 35.5 µM [falling, partial curve, poor fit]"
OC(c1ccccc1)(c1ccccc1)C1CN2CCC1CC2 (stereo not drawn),inconclusive: -11.4%,–
S=C1NC2(CCCCC2)NC12CCCCC2,inactive,–
O=C(Cn1cc(C(=O)c2ccccc2F)c2ccccc21)NCc1ccco1,inconclusive: 4.28%,–

# Three compounds out of the list, sorted by SMILES length, ascending:
SMILES,"activity change, negative = inhibition",Potency
Cc1ccc2c(c1)C1CN(C)CCC1N2C(=O)Nc1cccc(Cl)c1 (stereo not drawn),inconclusive: 23.4%,–
CCOC(=O)CC(NC(=O)C(Cc1ccc(N(CCCl)CCCl)cc1)NC(C)=O)C(=O)OCC (stereo not drawn),inconclusive: 2.79%,–
COC(=O)C1=C(c2cccc(OCc3ccccc3)c2)C[C@@H]2CC[C@H]1N2C(=O)NC1CCN(Cc2ccccc2)CC1,inconclusive: -15.3%,–

# Later entries:

SMILES,"activity change, negative = inhibition",Potency
CSc1ccc(CN2CCN(Cc3ccccc3Cl)CC2)cc1,inconclusive: 0.584%,–
CCOP1(=O)C=C(C(C)(C)C)OC1c1ccc(F)cc1 (stereo not drawn),inconclusive: -6.6%,–
Fc1ccc([C@@H]2CCNC[C@H]2COc2ccc3c(c2)OCO3)cc1,inactive,–
O=C(c1ccccc1)c1cn(CC(=O)N2CCCc3ccccc32)c2ccccc12,inactive,–
O=C1NC(=O)C(=Cc2ccc(-c3ccc(F)cc3O)o2)C(=O)N1,inconclusive: -6.75%,–
Cc1ccccc1CN1C(=O)CN=C(c2ccccc2)c2cc(Cl)ccc21,inconclusive: -15.5%,–
Clc1ccccc1N1CCN(Cc2ccc3c(c2)OCO3)CC1,inactive,–
O=C1/C(=C\c2ccc(Cl)cc2Cl)N2CCC1CC2,inconclusive: -12.5%,–
CC(C(=O)c1cn(C)c2ccccc12)c1ccccc1 (stereo not drawn),–,"inconclusive: 11.6 µM [rising, partial curve, poor fit]"
COc1cc(OC)c(OC)cc1/C=C1\CCC/C(=C\c2cc(OC)c(OC)cc2OC)C1=O,–,"inconclusive: 17.8 µM [falling, single point]"
CCOP(=O)(OCC)C(NC(=O)C(Cl)Cl)C(Cl)(Cl)Cl (stereo not drawn),inconclusive: 0.096%,–
Cc1[nH]c2ccc(OC(F)(F)F)cc2c1CCNCc1ccc(Cl)cc1,inactive,–
O=P(NC(c1ccccc1)c1ccccc1)(Oc1ccccc1)Oc1ccccc1,inconclusive: 0.356%,–
Cc1nc2cc(-c3cccc(F)c3)nn2c(C)c1CCC(=O)N1CCC2(CC1)OCCO2,–,"inconclusive: 7.08 µM [falling, partial curve]"
CCCCCCOc1ccc(CN2CCN(CC)CC2)cc1,–,"inconclusive: 29.1 µM [falling, single point]"
COc1ccc(CCn2c(O)c(C=NCc3cccnc3)c(=O)[nH]c2=O)cc1OC,inactive,–
CNC(=O)Oc1cccc(-c2cn3cc(OC(=O)NC)ccc3n2)c1,inconclusive: -1.77%,–
Nc1c(C(=O)OCC2CCCO2)c2nc3ccccc3nc2n1Cc1cccs1 (stereo not drawn),inconclusive: 2.94%,–
CC(=O)Nc1ccc(N=Cc2c(O)n(Cc3ccco3)c(=O)[nH]c2=O)cc1,inconclusive: -0.158%,–
Cc1ccc2c(c1)C1CN(C)CCC1N2C(=O)COc1ccc(N(C)S(=O)(=O)c2cccs2)cc1 (stereo not drawn),inconclusive: -17.4%,–
CC(=O)OCC[N+](C)(C)C,inconclusive: 2.31%,–
CCN(CC)c1ccc(N=Cc2c(O)n(Cc3ccco3)c(=O)[nH]c2=O)cc1,inconclusive: -7.09%,–
CCc1ccc2nc(N3CCC(C(=O)N4CCC5(CC4)OCCO5)CC3)sc2c1,–,"inconclusive: 35.5 µM [falling, single point]"
O=C(NC(=O)c1c(F)cccc1F)Nc1cc(Cl)c(F)c(Cl)c1F,–,"inconclusive: 0.501 µM [falling, full curve, poor fit]"
NC1=C([N+](=O)[O-])C(c2ccc3c(c2)OCO3)c2c(c3ccccc3oc2=O)O1 (stereo not drawn),–,"inconclusive: 1.26 µM [falling, full curve]"
Cc1c(C)c2ccc(OCC(=O)N3CCC(C(=O)O)(c4ccccc4)CC3)cc2oc1=O,inactive,–

SMILES,"activity change, negative = inhibition",Potency
Clc1ccc2sc(C3CCNCC3)nc2c1,inconclusive: 0.515%,–
COc1cc(/C=C/C(=O)c2c(O)n(CCc3ccccc3)c(=O)[nH]c2=O)ccc1O,–,"inconclusive: 8.2 µM [falling, partial curve, poor fit]"
Nc1ccnn1C1CCNCC1,–,"inconclusive: 29.1 µM [rising, partial curve, poor fit]"
CCN(CC)P(=O)(Nc1ccc([N+](=O)[O-])cc1)c1c(C)nn(CCC#N)c1NC(=O)c1ccc(Cl)cc1 (stereo not drawn),inconclusive: 15.1%,–
Cc1cccc(OCCn2cccc2/C=C2/C(=O)NC(=O)N(Cc3ccco3)C2=O)c1,inactive,–
Cc1cc(OCc2nn[nH]n2)c2c3c(c(=O)oc2c1)CCCC3,inactive,–
CCc1ccc(NC(=O)c2cccn(Cc3cccc([N+](=O)[O-])c3)c2=O)cc1,inactive,–
CCOC(=O)C1=CC(=C2C(=O)N(CC)C(=S)N(CC)C2=O)c2ccccc2O1,inactive,–
Cc1cccc(C)c1OCC(=O)NNC(=O)CCCn1c(=O)oc2ccccc21,inconclusive: 5.79%,–
Cc1ccc(OCCOc2cccc(C=C3C(=O)NC(=O)NC3=O)c2)cc1,–,"inconclusive: 31.6 µM [rising, partial curve]"
CCCCCn1c(=O)c(C(=O)Nc2ccccc2)c(O)c2ccccc21,inconclusive: 7.56%,–
CN1C(=O)/C(=C/c2cccn2-c2ccc3ccccc3c2)C(=O)NC1=S,inconclusive: 1.68%,–
COCC(=O)O[C@]1(CCN(C)CCCc2nc3ccccc3[nH]2)CCc2cc(F)ccc2[C@@H]1C(C)C,–,"inconclusive: 15.8 µM [falling, partial curve, poor fit]"
COc1ccc(C(=O)OC2CC[C@@]3(C)C4CCC5[C@]6(O)CC(O)[C@@]7(O)C(CN8CC(C)CCC8[C@@]7(C)O)[C@]6(O)C[C@@]53O[C@]24O)cc1OC (stereo partly drawn),inconclusive: -3.62%,–
CC(C)(C)C(=O)N1CCN(c2nc3ccccc3s2)CC1,inconclusive: 15.4%,–
COc1ccc(OC)c(-n2c(O)c(/C=C3\C=Nc4ccccc43)c(=O)[nH]c2=O)c1,inconclusive: -3.87%,–
Clc1ccc(CN2C3=NCCN3c3ccccc32)cc1Cl,inconclusive: -0.376%,–
Cc1nc2cc(C(F)(F)F)ccc2n1C1CCN(Cc2nnnn2CCc2ccccc2)CC1,inconclusive: -5.6%,–
O=C1/C(=C/c2cc3c(cc2Cl)OCO3)N2CCC1CC2,inactive,–
CCn1ccnc1CN1CCCC(C(=O)c2cccc(C(F)(F)F)c2)C1 (stereo not drawn),inactive,–
O=C1NC(=O)N(Cc2ccco2)C(=O)/C1=C\c1cccn1CCOc1ccc(Cl)cc1,inconclusive: -6.73%,–
CCOC(=O)c1ccc(-[n+]2c(-c3ccccc3)cc(-c3ccccc3)cc2-c2ccccc2)cc1,inconclusive: -17.8%,–
COc1ccccc1-n1c(O)c(/C=N/N2CCCCC2)c(=O)n(-c2ccccc2OC)c1=S,–,"inconclusive: 17.8 µM [falling, partial curve]"
CC[N+](CC)(CC)CCCCCCCCCC[N+](CC)(CC)CC,inconclusive: 2.54%,–
CCCCn1c(O)c(C(CC)=NCCCN(C)C)c(=O)[nH]c1=O,inactive,–
CSc1ccc(C(=O)C2CCCN(Cc3cc4ccccc4[nH]3)C2)cc1 (stereo not drawn),–,"inconclusive: 0.316 µM [falling, full curve, poor fit]"

# Grouped by structure, the compounds so far with a cyano group (two)
SMILES,"activity change, negative = inhibition",Potency
N#C/C(=C\C1CC=CCC1)c1nc2ccccc2[nH]1 (stereo not drawn),–,"inconclusive: 35.5 µM [falling, single point]"
CCN(CC)P(=O)(Nc1ccc([N+](=O)[O-])cc1)c1c(C)nn(CCC#N)c1NC(=O)c1ccc(Cl)cc1 (stereo not drawn),inconclusive: 15.1%,–
